For assay [1], the target named is ROCK2 kinase (Homo sapiens, UniProt O75116). Briefly: In vitro evaluation of ROCK2 kinase activity (HTRF KinEASE-STK time-resolved fluorometric assay). Type of assay: biochemical. The following applies: read-out: IC50 for ROCK2. The procedure: ROCK2 activity screening. ROCK2 activity was detected using a 96-well (Cisbio) time-resolved fluorometric assay. The assay for ROCK2 was performed in the following assay buffer: 5 mM MgCl2 (Sigma), 1 mM DTT (Sigma) and 1× kinase buffer. The kinase buffer was used for dilution. 7.5 μL of ROCK2 kinase (Invitrogen, PV3759) was added to a 96-well microplate to reach a final concentration of 0.4 ng/μL, and then 0.25 μL of test compound (DMSO content: 1% (volume fraction)) was added. The mixture was incubated at room temperature for 0.5 h. To start the reaction, the kinase buffer was used to mix ATP (Aladdin) and the substrate STK-substrate 2-biotin. 7.5 μL of the mixed solution was added to the microplate to reach final concentrations of 6.739 μM and 1 μM. The resulting mixture was incubated for 2 h at room temperature. 5 mL of detection buffer was mixed with STK antibody-Cryptate, and then an appropriate volume of the mixture was mixed with an equal volume of streptavidin-XL665. 10 μL of the resulting mixture was added to the microplate to stop the reaction. After further incubation for about 1 h, the microplate was read on a Molecular Devices SpectraMax i3x multifunctional microplate reader. The kinase buffer, the STK-substrate 2-biotin, the detection buffer, the STK antibody-Cryptate, and the streptavidin-XL665 were all from HTRF KinEASE-STK kit (Cisbio, 1000 tests, 61[…]). […]

Chains of the proteins cited; added tags and fusions are not shown.
UniProt O75116, whole entry: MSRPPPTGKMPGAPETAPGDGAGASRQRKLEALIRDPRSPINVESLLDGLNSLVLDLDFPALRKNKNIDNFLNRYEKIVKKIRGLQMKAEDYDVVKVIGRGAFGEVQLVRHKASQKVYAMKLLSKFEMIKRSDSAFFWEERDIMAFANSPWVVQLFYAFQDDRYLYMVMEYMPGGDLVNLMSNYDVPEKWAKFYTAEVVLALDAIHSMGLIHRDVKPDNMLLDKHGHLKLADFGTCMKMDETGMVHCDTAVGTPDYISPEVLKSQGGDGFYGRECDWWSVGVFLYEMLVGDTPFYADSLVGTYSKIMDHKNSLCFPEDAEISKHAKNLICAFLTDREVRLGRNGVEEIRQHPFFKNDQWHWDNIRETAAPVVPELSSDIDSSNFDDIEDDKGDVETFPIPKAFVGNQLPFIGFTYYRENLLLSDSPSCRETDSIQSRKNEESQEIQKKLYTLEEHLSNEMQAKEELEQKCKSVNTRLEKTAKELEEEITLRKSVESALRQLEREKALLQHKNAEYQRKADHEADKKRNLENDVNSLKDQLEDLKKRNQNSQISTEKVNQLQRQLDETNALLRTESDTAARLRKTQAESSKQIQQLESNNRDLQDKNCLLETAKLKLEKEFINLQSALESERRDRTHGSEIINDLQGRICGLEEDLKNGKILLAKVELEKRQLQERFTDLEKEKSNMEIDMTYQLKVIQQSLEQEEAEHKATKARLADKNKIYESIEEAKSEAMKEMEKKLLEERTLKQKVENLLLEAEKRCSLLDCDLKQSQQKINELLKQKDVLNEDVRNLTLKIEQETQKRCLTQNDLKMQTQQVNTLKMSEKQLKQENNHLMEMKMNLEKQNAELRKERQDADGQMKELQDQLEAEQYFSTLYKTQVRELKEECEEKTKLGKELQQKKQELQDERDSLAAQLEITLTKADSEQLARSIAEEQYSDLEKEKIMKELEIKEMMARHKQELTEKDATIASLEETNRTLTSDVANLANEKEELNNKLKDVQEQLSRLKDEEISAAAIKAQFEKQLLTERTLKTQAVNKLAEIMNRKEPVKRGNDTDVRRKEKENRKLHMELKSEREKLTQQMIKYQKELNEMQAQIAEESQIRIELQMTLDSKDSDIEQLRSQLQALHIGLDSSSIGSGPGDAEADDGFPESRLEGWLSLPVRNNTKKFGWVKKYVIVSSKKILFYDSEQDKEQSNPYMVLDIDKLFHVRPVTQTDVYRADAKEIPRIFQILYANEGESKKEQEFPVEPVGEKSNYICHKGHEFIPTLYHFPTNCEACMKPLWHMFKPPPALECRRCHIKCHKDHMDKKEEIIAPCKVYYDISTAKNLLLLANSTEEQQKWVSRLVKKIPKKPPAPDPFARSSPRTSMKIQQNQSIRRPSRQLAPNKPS
UniProt Q13464, whole entry: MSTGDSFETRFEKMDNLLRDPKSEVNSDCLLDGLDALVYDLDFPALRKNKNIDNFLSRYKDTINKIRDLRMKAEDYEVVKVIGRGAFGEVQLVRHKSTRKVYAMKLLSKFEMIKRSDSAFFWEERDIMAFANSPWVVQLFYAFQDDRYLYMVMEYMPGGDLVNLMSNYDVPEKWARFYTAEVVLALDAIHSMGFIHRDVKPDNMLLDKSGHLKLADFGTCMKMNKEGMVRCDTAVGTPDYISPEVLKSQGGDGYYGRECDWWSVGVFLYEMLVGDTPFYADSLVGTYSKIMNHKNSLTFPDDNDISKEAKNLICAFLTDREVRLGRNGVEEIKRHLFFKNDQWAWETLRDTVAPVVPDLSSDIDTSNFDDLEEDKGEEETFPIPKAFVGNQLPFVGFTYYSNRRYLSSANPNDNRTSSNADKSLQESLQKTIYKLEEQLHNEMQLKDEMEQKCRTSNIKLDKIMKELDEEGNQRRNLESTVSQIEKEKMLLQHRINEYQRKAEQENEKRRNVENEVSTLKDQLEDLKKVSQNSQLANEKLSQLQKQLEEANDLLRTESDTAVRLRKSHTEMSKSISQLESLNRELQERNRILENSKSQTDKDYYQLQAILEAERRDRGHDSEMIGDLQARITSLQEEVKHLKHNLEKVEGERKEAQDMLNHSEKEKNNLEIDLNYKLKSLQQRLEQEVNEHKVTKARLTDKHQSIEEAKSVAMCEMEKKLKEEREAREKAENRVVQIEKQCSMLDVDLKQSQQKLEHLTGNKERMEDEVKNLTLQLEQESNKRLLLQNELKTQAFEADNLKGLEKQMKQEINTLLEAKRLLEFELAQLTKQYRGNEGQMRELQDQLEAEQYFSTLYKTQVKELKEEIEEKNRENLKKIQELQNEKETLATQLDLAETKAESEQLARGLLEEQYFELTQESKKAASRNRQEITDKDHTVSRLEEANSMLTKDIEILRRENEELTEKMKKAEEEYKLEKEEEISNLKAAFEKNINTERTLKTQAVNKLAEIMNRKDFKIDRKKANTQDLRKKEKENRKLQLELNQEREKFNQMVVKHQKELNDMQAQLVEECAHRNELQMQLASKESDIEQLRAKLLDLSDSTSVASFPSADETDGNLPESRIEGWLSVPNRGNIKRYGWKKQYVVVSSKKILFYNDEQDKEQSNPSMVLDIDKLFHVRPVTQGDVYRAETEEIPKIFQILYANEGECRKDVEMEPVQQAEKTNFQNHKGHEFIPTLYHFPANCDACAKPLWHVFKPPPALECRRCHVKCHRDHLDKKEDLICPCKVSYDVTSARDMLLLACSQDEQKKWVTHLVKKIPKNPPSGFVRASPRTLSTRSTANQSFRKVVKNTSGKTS

For assay [2], the target named is ROCK1 kinase (Homo sapiens, UniProt Q13464). Briefly: In vitro evaluation of ROCK1 kinase selectivity (HTRF KinEASE-STK time-resolved fluorometric assay). Type of assay: biochemical. Particulars: read-out: IC50 for ROCK1. How it is done:
ROCK1 activity was detected using a 96-well (Cisbio) time-resolved fluorometric assay. The assay for ROCK1 was performed in the following assay buffer: 5 mM MgCl2 (Sigma), 1 mM DTT (Sigma) and 1× kinase buffer. The kinase buffer was used for dilution. 7.5 μL of ROCK1 kinase (Invitrogen) was added to a 96-well microplate to reach a final concentration of 0.4 ng/μL, and then 0.25 μL of test compound (DMSO content: 1%) was added. The mixture was incubated at room temperature for 0.5 h. To start the reaction, the kinase buffer was also used to mix ATP (Aladdin) and the substrate STK-substrate 2-biotin. 7.5 μL of the mixed solution was added to the microplate to reach final concentrations of 3.53 μM and 1 μM. The resulting mixture was incubated for 2 h at room temperature. […] was mixed with STK antibody-Cryptate, and then an appropriate volume of the mixture was mixed with an equal volume of streptavidin-XL665. 10 μL of the resulting mixture was added to stop the reaction. After further incubation for about 1 h, the microplate was read on a Molecular Devices SpectraMax i3x multifunctional microplate reader. The kinase buffer, the STK-substrate 2-biotin, the detection buffer, the STK antibody-Cryptate, and the streptavidin-XL665 were all from HTRF KinEASE-STK kit (Cisbio, 1000 tests, 61[…]). […]

Structures were worked out from names or drawings and are uncertain.

With `COc1cccc(CCC(=O)N2CCc3cc(-c4c[nH]nc4N)c(F)cc32)c1` [Compound T383], the figures for the IC50 in assay [1] and in assay [2] were 50 to 500 nM and 500 to 5000 nM, respectively.
